No constants are given. Whether binding was seen depends on the method and setting. Sequences can lack the tags named with a protein.
Target: Streptacidiphilus jiangxiensis glucosamine kinase (SjGlcNK) (Streptacidiphilus jiangxiensis)
Assay: SAXS; SjGlcNK in solution, with and without ligands (GlcN, glucose, ATP); profiles extrapolated to infinite dilution; both purified

binding: no binding
B1: Streptacidiphilus jiangxiensis glucosamine kinase (SjGlcNK) (enzyme, UniProt A0A1H7TQR5 1-438)
chain: MTPNWSELVAAADPALVLPSGERRAEVAVPGPLRLDALLDLGEGHAVGVVRSADAARWTVPLVRDGAGGVRRSRPGDGTAEHLVAALARRGATPDAAFVLEAFTGAAPVTGERGIIVDQTNESVIVGECAVVKWAVRLPAEGEPGSPAAQRIAALARGGFTEMPRPWGLLTLAEGAQPVLLASVVAYLPGALDGWDWAVDDVRRLARGELTMDQALLPAAQLGTLTARMHAALAARGRTPATAADVAAWGVRMREELDEAVASVPGAEGERLKAWAPRIADVYAELDALAGTPLIDVHGDFHVGQILRADGRYAVVDFDGNPVLPADQRAARQPAALDVVGMTASLDHVGRVVVFRTPDVDPAPVRAWIAAAQRSFLDAYRTTLARLDADDLFDDRLLTPLRYAQEVREYLYAVRHLPHWVYVPDLSLTDLLPERLKD

Source: PMC6520443, “Molecular Fingerprints for a Novel Enzyme Family in Actinobacteria with Glucosamine Kinase Activity” (mBio, 2019)
